{"source": "PubChem BioAssay AID445", "about": "(National Center for Advancing Translational Sciences (NCATS), 2006)", "experiment": "IkB Signaling", "settings": "ABC-DLBCL IkBa-CBG/CBR dual luciferase ratio (green luciferase fused to IkBa over red control in OCI-Ly3 lymphoma cells), 4 h", "procedure,_shortened": "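Luminescence ratio of IκBα-fused green versus native red beetle luciferase in OCI-Ly3 cells, 4 h post-doxycycline with compound; red signal alone, scaled from basal (0%) to zero light (-100%), flagged nonspecific or cytotoxic effects.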", "key": {"[1]": {"settings": "measured here: control luc red channel unless noted"}, "[2]": {"settings": "measured here: IkB-luc green channel"}, "[3]": {"settings": "measured here: control luc red channel"}}, "note": "This is one part of the list. Shown are side measurements of this screen, not its main read-out; they come without a call. Most of these compounds were active or inconclusive in the main read-out, so they are no random draw. Words in brackets tell the shape of the fitted curve; partial curves, single points and poor fits give uncertain potencies.", "data": [{"smiles": "CCCCNC(=O)CSc1nc2n[nH]c(C)c2c(=N)n1-c1cccc(C)c1", "values": [{"measurement": "AC50", "setting": "[1]", "value": "25.1 µM [falling, single point]"}]}, {"smiles": "Cc1cnc(NC(=O)COc2ccccc2)s1", "values": [{"measurement": "AC50", "setting": "[1]", "value": "20 µM [falling, single point]"}]}, {"smiles": "Cc1nc2ccc(S(=O)(=O)NC(CC(C)C)C(=O)NCc3ccc(Cl)cc3)cc2s1", "note": "(configuration not stated)", "values": [{"measurement": "AC50", "setting": "[1]", "value": "20 µM [falling, partial curve]"}]}, {"smiles": "C=CCc1cccc2cc(-c3nc4ccc(C(=O)O)cc4[nH]3)c(=O)oc12", "values": [{"measurement": "AC50", "setting": "[1]", "value": "0.2 µM [falling, full curve]"}]}, {"smiles": "CCOC(=O)c1cc(S(=O)(=O)Nc2c(C)cc(C)cc2C)[nH]n1", "values": [{"measurement": "AC50", "setting": "[1]", "value": "10 µM [falling, partial curve]"}]}, {"smiles": "Cc1ccc2nc(-c3ccc(NC(=O)COc4ccccc4C(C)(C)C)cc3)sc2c1", "values": [{"measurement": "AC50", "setting": "[1]", "value": "3.98 µM [rising, single point]"}]}, {"smiles": "COc1ccc2cc(CN(C(=O)Nc3ccccc3OC)C3CCCC3)c(=O)[nH]c2c1", "values": [{"measurement": "AC50", "setting": "[1]", "value": "6.31 µM [falling, partial curve]"}]}, {"smiles": "CC(=O)NC(C)c1nc2ccccc2n1Cc1ccccc1Cl", "note": "(configuration not stated)", "values": [{"measurement": "AC50", "setting": "[1]", "value": "15.8 µM [falling, partial curve]"}]}, {"smiles": "CCOC(=O)N1CCN(c2ncc3c(n2)CC(c2ccc(Cl)cc2)CC3=O)CC1", "note": "(configuration not stated)", "values": [{"measurement": "AC50", "setting": "[1]", "value": "20 µM [falling, single point]"}]}, {"smiles": "Cc1ccc(C)c(NC(=O)C2CCCN2S(=O)(=O)c2ccc3c(c2)n(C)c(=O)c(=O)n3C)c1", "note": "(configuration not stated)", "values": [{"measurement": "AC50", "setting": "[1]", "value": "25.1 µM [falling, partial curve]"}]}, {"smiles": "Cc1ccc(-c2noc(CN(C(=O)CCCCCN3C(=O)c4ccccc4C3=O)C(C)C)n2)cc1", "values": [{"measurement": "AC50", "setting": "[1]", "value": "15.8 µM [falling, partial curve]"}]}, {"smiles": "CCOC(=O)CCCCN(Cc1ccccc1F)S(=O)(=O)c1ccc(F)c(C(=O)Nc2cc(Cl)cc(Cl)c2)c1", "values": [{"measurement": "AC50", "setting": "[1]", "value": "39.8 µM [falling, single point]"}]}, {"smiles": "COc1cc(-c2noc(-c3ccc(NC4CCCC4)c([N+](=O)[O-])c3)n2)cc(OC)c1OC", "values": [{"measurement": "AC50", "setting": "[1]", "value": "3.98 µM [falling, partial curve]"}]}, {"smiles": "O=C(NCc1ccc(F)cc1)c1nnc(Cc2cccc(F)c2)o1", "values": [{"measurement": "AC50", "setting": "[1]", "value": "31.6 µM [falling, single point]"}]}, {"smiles": "CC(C)c1ccc(NC(=O)c2cnc3sc(N4CCCC4)nn3c2=O)cc1", "values": [{"measurement": "AC50", "setting": "[1]", "value": "3.16 µM [falling, full curve]"}]}, {"smiles": "COCCOC(=O)c1c(C)oc2ccc(OC(=O)c3ccc4c(c3)OCO4)cc12", "values": [{"measurement": "AC50", "setting": "[1]", "value": "15.8 µM [falling, partial curve]"}]}, {"smiles": "CCOC(=O)c1ccc(NC(=O)CC2C(=O)N(c3cccc(C)c3)C(=O)N2CCOC)cc1", "note": "(configuration not stated)", "values": [{"measurement": "AC50", "setting": "[1]", "value": "31.6 µM [falling, partial curve]"}]}, {"smiles": "COc1cc(NC(=O)CSc2nc3ccccc3c(=O)n2C)ccc1NC(=O)c1ccco1", "values": [{"measurement": "AC50", "setting": "[1]", "value": "10 µM [falling, partial curve]"}]}, {"smiles": "Cc1ccc(OCC(=O)Nc2nnc(SCc3cc(=O)n4cccc(C)c4n3)s2)cc1", "values": [{"measurement": "AC50", "setting": "[1]", "value": "2.51 µM [falling, full curve, poor fit]"}]}, {"smiles": "Cc1cc(C(=O)CSc2nnc(-c3cccs3)o2)c(C)n1-c1ccccc1", "values": [{"measurement": "AC50", "setting": "[1]", "value": "7.94 µM [falling, partial curve]"}]}, {"smiles": "O=C(Cn1c(=O)n(Cc2ccccc2)c(=O)c2sc3ccccc3c21)Nc1ccc(F)cc1", "values": [{"measurement": "AC50", "setting": "[1]", "value": "12.6 µM [falling, partial curve]"}]}, {"smiles": "COc1ccc(C(C(O)C(=O)c2c[nH]c3ccccc23)N2CCN(c3ccc(OC)cc3)CC2)cc1", "note": "(configuration not stated)", "values": [{"measurement": "AC50", "setting": "[1]", "value": "15.8 µM [falling, partial curve]"}]}, {"smiles": "CCCCN(CC)CCCNC(=O)c1cc2c(=O)oc3ccc(C)cc3c2s1", "values": [{"measurement": "AC50", "setting": "[1]", "value": "39.8 µM [falling, single point]"}]}, {"smiles": "Cc1nnc(NC(=O)CCC(=O)N2CCC(C)CC2)s1", "values": [{"measurement": "AC50", "setting": "[2]", "value": "20 µM [rising, partial curve]"}, {"measurement": "AC50", "setting": "[3]", "value": "10 µM [falling, partial curve, poor fit]"}]}, {"smiles": "O=C(COc1ccc(Cl)cc1)NCC(c1cccs1)S(=O)(=O)c1ccc(F)cc1", "note": "(configuration not stated)", "values": [{"measurement": "AC50", "setting": "[2]", "value": "3.98 µM [rising, single point]"}, {"measurement": "AC50", "setting": "[3]", "value": "10 µM [falling, single point]"}]}, {"smiles": "N#Cc1c(N)nc(SC2CCCCC2=O)c(C#N)c1-c1ccco1", "note": "(configuration not stated)", "values": [{"measurement": "AC50", "setting": "[1]", "value": "31.6 µM [falling, partial curve]"}]}, {"smiles": "N=C(N=C(N)N)N1CCOCC1", "values": [{"measurement": "AC50", "setting": "[1]", "value": "6.31 µM [falling, single point]"}]}, {"smiles": "Cc1nnc(NCc2ccccc2)c2c1nnn2Cc1ccc(F)cc1", "values": [{"measurement": "AC50", "setting": "[1]", "value": "0.0631 µM [rising, partial curve]"}]}, {"smiles": "CCc1cccc(NC(=O)Cn2nc(-c3cc(C)ccc3C)ccc2=O)c1", "values": [{"measurement": "AC50", "setting": "[1]", "value": "31.6 µM [falling, single point]"}]}, {"smiles": "Cc1ccc(CN2C(=O)C3(c4ccccc42)N(c2cccc(C(F)(F)F)c2)C(=O)CS3(=O)=O)cc1", "note": "(configuration not stated)", "values": [{"measurement": "AC50", "setting": "[1]", "value": "7.94 µM [falling, partial curve]"}]}, {"smiles": "O=c1cc(CSc2n[nH]c(-c3ccccc3)n2)[nH]c2ccccc12", "values": [{"measurement": "AC50", "setting": "[1]", "value": "25.1 µM [falling, single point]"}]}, {"smiles": "COc1ccccc1NC(=O)CSc1oc(-c2cccs2)nc1S(=O)(=O)c1ccccc1", "values": [{"measurement": "AC50", "setting": "[1]", "value": "15.8 µM [falling, partial curve]"}]}, {"smiles": "Cc1nc2sc(C(c3ccco3)N3CCN(c4ccccc4)CC3)c(O)n2n1", "note": "(configuration not stated)", "values": [{"measurement": "AC50", "setting": "[1]", "value": "3.16 µM [falling, full curve]"}]}, {"smiles": "O=C(CN1C(=O)COc2ccc(S(=O)(=O)N3CCOCC3)cc21)N1CCN(c2ccc(F)cc2)CC1", "values": [{"measurement": "AC50", "setting": "[1]", "value": "39.8 µM [falling, single point]"}]}, {"smiles": "Cc1ccccc1OCC(=O)Nc1ccc(N2CCN(C(=O)C(C)C)CC2)c(Cl)c1", "values": [{"measurement": "AC50", "setting": "[2]", "value": "20 µM [falling, partial curve]"}, {"measurement": "AC50", "setting": "[3]", "value": "20 µM [falling, partial curve]"}]}, {"smiles": "CCSC1(SCC)N=C(N)C2(C#N)C(c3ccc(OC)c(OC)c3OC)C12C#N", "note": "(configuration not stated)", "values": [{"measurement": "AC50", "setting": "[1]", "value": "10 µM [falling, partial curve]"}]}, {"smiles": "CC(Sc1nc(=O)cc(N)n1CCc1ccccc1)C(=O)Nc1ccccc1C#N", "note": "(configuration not stated)", "values": [{"measurement": "AC50", "setting": "[1]", "value": "20 µM [falling, partial curve]"}]}, {"smiles": "O=C(NC1CCCCC1)c1ccc2c(c1)N(Cc1ccc(Cl)cc1)C(=O)c1ccccc1S2(=O)=O", "values": [{"measurement": "AC50", "setting": "[1]", "value": "3.16 µM [falling, single point]"}]}, {"smiles": "CCc1nn(CC(=O)N2CCN(Cc3ccc4c(c3)OCO4)CC2)c(=O)c2cc3occc3n12", "values": [{"measurement": "AC50", "setting": "[1]", "value": "15.8 µM [falling, partial curve]"}]}]}
